# Reference: US9539367B2, “Gallium inhibits biofilm formation” (priority 2003, dated 2017)
# At least one compound was matched to its structure with a doubt left.
# Tested on: P. aeruginosa biofilm
# Assay: Biofilm formation of GFP-labeled P. aeruginosa in continuous culture flow cells
# Format: cell-based
# Settings: Fe chelation; concentrations that did not alter growth (lactoferrin 20 μg ml)
compound,measurement,value
"CC(=O)N(O)CCCCCNC(=O)CCC(=O)N(O)CCCCCNC(=O)CCC(=O)N(O)CCCCCN [deferoxamine, reference compound]",effect on P. aeruginosa biofilm formation,duplicated
